Results from PubChem BioAssay AID504467 (National Center for Advancing Translational Sciences (NCATS), 2011).
The campaign covered roughly 330,000 compounds. About 7,700 (2.3%) were called active. Inconclusive results, whose numbers are uncertain, are shown with a selection of clear calls. Calls follow the shape of the dose curve; as a rule, active = well fitted inhibition curve with a large enough effect; inconclusive = small, poorly fitted or top-dose-only effect, or effect the other way; inactive = flat fitted curve, though single readings scatter. Potencies beside an inconclusive call are fits to weak or partial responses and may not hold up.

assay: qHTS screen for small molecules that inhibit ELG1-dependent DNA repair in human embryonic kidney (HEK293T) cells expressing luciferase-tagged ELG1; conditions: HEK293T ELG1-luciferase reporter, luminescence, 16 h, DNA damage induced by 5-fluorouridine; activity change, negative = inhibition: at 46.1 µM (top of the series); also: nearly all actives have a fitted effect of over 55% in size
Summary of the method: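 Overnight (16 hr) co-exposure of 2,000 cells/well to 5-fluorouridine and compound at 37 °C preceded detection. Luciferase was quantified via ONE-Glo luminescence; loss of signal denotes inhibition.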
% is scaled to controls: 0 for no effect and ±100 for the full control effect; potency is read from the fitted curve at half-maximal effect.

| SMILES | Potency | activity change, negative = inhibition |
| --- | --- | --- |
| CCc1ccc(CN(C(=O)c2oc3ccccc3c2C)C2CCS(=O)(=O)C2)cc1 (stereo not drawn) | inconclusive: 18.3 µM [inhibitor, partial curve] |  |
| COc1ccc(/C=C/c2ccncc2)cc1 | inconclusive: 10 µM [activator, partial curve] |  |
| O=S(=O)(c1ccc2c(c1)OCCO2)N1CCCN(S(=O)(=O)c2c(F)cccc2F)CC1 | inconclusive: 29.1 µM [inhibitor, single point] |  |
| CN(C)c1ccc(P(=O)(Nc2ccccc2)N2CCOCC2)c(NC(=O)c2cccs2)c1 (stereo not drawn) | inconclusive: 14.6 µM [inhibitor, partial curve, poor fit] |  |
| COC(=O)c1ccc(C(=O)OC)c(NC(=O)COC(=O)C2CCC(C(C)(C)C)CC2)c1 (stereo not drawn) |  | inactive: -28.6% |
| Nc1ncnc(NCc2ccc(F)cc2)c1[N+](=O)[O-] | active: 8.2 µM |  |
| CC(=O)O[C@H]1CC[C@@]2(C)C(=CC[C@H]3[C@@H]4CC[C@H](C5(C)OCCO5)[C@@]4(C)CC[C@@H]32)C1 | inconclusive: 22.4 µM [activator, single point] |  |
| O=C(N/N=C/c1ccccn1)c1sc2ccccc2c1Cl | inconclusive: 25.9 µM [activator, single point] |  |
| N#CC1=C(N)OC2=C(C(=O)CCC2)C1CCc1ccccc1 (stereo not drawn) | inconclusive: 23.1 µM [activator, single point] |  |
| CCC(C)[C@H](NC(=O)c1cc2cc(Cl)ccc2n1C)C(=O)N1CCC(C(=O)O)CC1 (stereo partly drawn) |  | inactive: 16.5% |
| CCc1ccc2c(CN(CC)Cc3nc4ccccc4c(=O)[nH]3)cc(=O)oc2c1 | inconclusive: 35.5 µM [inhibitor, single point] |  |
| Cc1ccc(/C=N/c2sc3c(c2C(N)=O)CCCC3)o1 | inconclusive: 9.2 µM [activator, partial curve] |  |
| Cc1ccc(S(=O)(=O)N[C@H](C(=O)OCC(=O)NC(=O)Nc2ccc3c(c2)OCCO3)C(C)C)cc1 | inconclusive: 32.6 µM [inhibitor, single point] |  |
| C1CCCCCC(NCCN2CCNCC2)CCCCC1 | inconclusive: 10.3 µM [activator, partial curve] |  |
| CCCCc1nnc(SCC(=O)Nc2nccs2)n1C |  | inactive: -1.77% |
| Cc1cc(N/C(=N/S(=O)(=O)c2ccc(F)cc2)c2ccccc2)n(-c2ccccc2)n1 | inconclusive: 18.3 µM [inhibitor, single point] |  |
| COc1ccc2c(c1OC)C(=O)OC2C1c2c(cc3c(c2OC)OCO3)CCN1C (stereo not drawn) | inactive |  |
| CCCN1Cc2cccc(C(=O)Nc3ccc(CC)cc3)c2C1=O | inconclusive: 23.1 µM [activator, partial curve, poor fit] |  |
| COc1cc(-c2[nH]ncc2CN2CCN(c3cccc(C)n3)CC2)cc(OC)c1OC | inconclusive: 4.61 µM [inhibitor, full curve] |  |
| CC1=NN(C(=O)COc2cc(C)ccc2C(C)C)C(O)(c2ccccc2)C1 (stereo not drawn) | active: 20.6 µM |  |
| COCCN(C(=O)Cc1cccs1)C(C(=O)NCc1ccc(OC)cc1)c1ccc(C(C)C)cc1 (stereo not drawn) | inconclusive: 18.4 µM [inhibitor, partial curve, poor fit] |  |
| CCCCCCCC[n+]1c(C)n(-c2ccccc2)c2ccc(NC(C)=O)cc21 | inconclusive: 7.3 µM [inhibitor, partial curve] |  |

| SMILES | Potency | activity change, negative = inhibition |
| --- | --- | --- |
| O=C(Cn1nnc(-c2ccccc2F)n1)Nc1ccc2c(c1)OCCO2 | inconclusive: 29.1 µM [activator, single point] |  |
| CCCn1c(/C=C/c2cc[n+](C)cc2)nc2ccccc21 |  | inactive: -3.74% |
| CN(C)c1ccc(NC(=O)C(=O)C2C(=O)Nc3ccccc32)cc1 (stereo not drawn) | inconclusive: 16.4 µM [activator, partial curve] |  |
| CC(C)NC(=O)c1c(CSc2ccccc2)noc1C(=O)NCc1ccccc1 | inconclusive: 20.6 µM [inhibitor, partial curve, poor fit] |  |
| C[C@H](NC(=O)c1nc[nH]c1C(=O)NCc1ccc(CNC(=O)OC(C)(C)C)cc1)C(=O)OC(C)(C)C | active: 8.2 µM |  |
| COC(C[C@@H]1O[C@@H]1C(=O)COCc1ccccc1)OC |  | inactive: 1.32% |
| Cc1ccc(S(=O)(=O)N2CCCCC2)cc1NC(=O)CSc1ncccn1 |  | inactive: 1.34% |
| CCOC(=O)Cc1csc(NC(=O)c2ccc(S(=O)(=O)N(CCOC)CCOC)cc2)n1 | inconclusive: 29.1 µM [inhibitor, partial curve, poor fit] |  |
| CCN(c1cccc(C)c1)S(=O)(=O)c1cn(CC(=O)OC)c2ccc([N+](=O)[O-])cc12 |  | inactive: -8.49% |
| O=C1OCCN1c1c(-c2ccccc2)c(-c2cccs2)nc2c(-c3ccccc3)cccc12 |  | inactive: 26.5% |
| Cn1cc(C(=O)c2ccc(Cl)cc2Cl)cc1C(=O)N/N=C(\N)COc1ccc(Cl)cc1 | active: 18.3 µM |  |
| Cc1ccc(C2N=C(N)Nc3nc(=O)c4ccccc4n32)cc1 (stereo not drawn) |  | inactive: 26% |
| Cc1cc(O)c(C(=O)/C=C/c2cccc([N+](=O)[O-])c2)c(=O)o1 |  | inactive: 1.06% |
| COc1ccc2cc(C(=O)CS(=O)(=O)c3ccccc3)c(=O)oc2c1 | inconclusive: 29.1 µM [activator, partial curve, poor fit] |  |
| C/C(=N\NC(=O)C1(C)CC1(Br)Br)c1ccc(NC(=O)c2ccc(C)o2)cc1 (stereo not drawn) | inconclusive: 23.1 µM [inhibitor, single point] |  |
| O=C(CN(C(=O)c1ccccc1Cl)C1CCCCC1)Nc1ccc(Cl)c([N+](=O)[O-])c1 | inconclusive: 20.6 µM [inhibitor, partial curve, poor fit] |  |
| CCCNS(=O)(=O)c1ccc(OCC(=O)Nc2ccc3c(c2)OCCO3)c(C)c1 |  | inactive: -15.4% |
| CCCn1c(-c2cccs2)nc2nc3ccccc3nc21 | inconclusive: 0.517 µM [inhibitor, full curve] |  |
| NC1=NC(=Nc2cccc(S(N)(=O)=O)c2)c2ccccc21 |  | inactive: 16.7% |
| CCOC(=O)c1c(C)[nH]c(C)c1C(=O)COC(=O)Cc1n[nH]c(=O)c2ccccc12 | inconclusive: 8.2 µM [activator, partial curve, poor fit] |  |
| CCN(CCNC(=O)CN(C)S(=O)(=O)c1cccc2nsnc12)c1ccccc1 | active: 23.1 µM |  |

Quoted at random: 2 compounds from above

| SMILES | Potency | activity change, negative = inhibition |
| --- | --- | --- |
| O=S(=O)(c1ccc2c(c1)OCCO2)N1CCCN(S(=O)(=O)c2c(F)cccc2F)CC1 | inconclusive: 29.1 µM [inhibitor, single point] |  |
| CCCn1c(-c2cccs2)nc2nc3ccccc3nc21 | inconclusive: 0.517 µM [inhibitor, full curve] |  |
